Test results from patent US20250084061A1, “SULFONYL FUNCTIONAL COMPOUND, METHODS AND USES THEREOF” (Hubei Biopesticide Engineering Research Centre, priority 2023, published 2025).
Some results were stated once for a whole list of compounds, not compound by compound.

Tested on: many kinds of pathogenic fungi
Experiment: Bactericidal (fungicidal) activity by microdilution, summary
Assay type: cell-based
Conditions: for inhibition rate, a variety of pathogenic fungi: low-test concentration of 12.5 µg/mL

**Q.** Which “inhibition rates against many kinds of pathogenic fungi” value does the source give for COC(=O)Nc1nc2ccccc2n1CCCCS(=O)(=O)O [III-3] here?
**A.** The value was “exceed 90%”.

**Q.** What about the “inhibition rate, a variety of pathogenic fungi” value of the same molecule?
**A.** The value was “exceed 90%”.

**Q.** COC(=O)Nc1nc2ccccc2n1C/C=C/S(=O)(=O)O [III-2] was tested. Which “inhibition rates against many kinds of pathogenic fungi” value did it give?
**A.** Its value is “exceed 90%”.

**Q.** What about the “inhibition rate, a variety of pathogenic fungi” value of the same molecule?
**A.** The value was “exceed 90%”.
